PubChem BioAssay AID686938 – Drosophila RNAi Screening Center, 2013

Screen: 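Fly genes required for calcium entry once internal stores are emptied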 (primary screen)
Cell system: Drosophila S2R+ cells
Knock-down reagent: long dsRNA against Drosophila genes, about 0.25 µg dsRNA per well, roughly 10,000 cells
Duration: 5 days of knock-down before the calcium assay
Treatment: thapsigargin (SERCA pump blocker) to empty calcium stores; entry signal taken 4 min after adding it
Measurement: 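Duplicate raw fluo-4 intensities per well from a plate reader, at rest and four minutes after thapsigargin emptied calcium stores; entry-to-rest ratio filled for only some wells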
Scale: calcium entry signal: higher = stronger calcium signal after store depletion; entry to resting ratio: higher = more calcium entry relative to resting level; resting calcium signal: higher = higher resting calcium signal
Active means: 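Hit if the duplicate-averaged plate z-score for entry over resting signal is under −3; wells with weak total dye signal (Fmax z < −2) or more than 5 off-targets removed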
Meaning of the calls: active = strongly reduced calcium entry; inactive = no strong reduction
The screen tested about 23,000 reagents; this is an unselected part of those with a known target gene and a result. Over the whole deposit, 75 (0.33%) are marked active. 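Raw plate signals without normalisation; calls rest on plate z-scores that were not deposited; ratio present for only 364 wells.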 Unmarked entries are inactive. Reagent sequences are not shown. The record does not give: the dose of the treatment.

| gene | DRSC id | calcium entry signal, replicate 1 (fluorescence units) | calcium entry signal, replicate 2 (fluorescence units) | entry to resting ratio | resting calcium signal, replicate 1 (fluorescence units) | resting calcium signal, replicate 2 (fluorescence units) |
| --- | --- | --- | --- | --- | --- | --- |
| CG31517 | DRSC13010 | 3.97e7 | 3.81e7 | – | 2.46e7 | 1.68e7 |
| beta4GalNAcTA | DRSC05944 | 4.66e7 | 3.35e7 | – | 2.39e7 | 1.79e7 |
| CG12716 | DRSC19493 | 4.71e7 | 3.67e7 | – | 1.93e7 | 1.47e7 |
| krimp | DRSC06578 | 3.32e7 | 3.30e7 | – | 1.65e7 | 1.66e7 |
| AttA | DRSC05926 | 4.94e7 | 4.33e7 | – | 1.83e7 | 1.97e7 |
| CG5913 | DRSC15916 | 3.27e7 | 5.14e7 | – | 1.71e7 | 2.22e7 |
| VhaAC45 | DRSC07058 | 2.54e7 | 2.07e7 | – | 1.50e7 | 1.37e7 |
| CG15233 | DRSC04967 | 3.84e7 | – | – | 1.85e7 | – |
| CG30334 | DRSC05345 | 2.85e7 | 5.54e7 | – | 1.42e7 | 2.37e7 |
| CG10164 | DRSC14197 | 3.58e7 | 2.35e7 | – | 1.73e7 | 1.18e7 |
| RpS10b | DRSC19561 | 3.80e7 | 3.48e7 | – | 2.10e7 | 1.82e7 |
| lncRNA:noe | DRSC22747 | 3.67e7 | 3.56e7 | – | 1.88e7 | 1.49e7 |
| CG10587 | DRSC11627 | 3.38e7 | 5.10e7 | – | 1.71e7 | 2.36e7 |
| CG12540 | DRSC19471 | 2.83e7 | 3.56e7 | – | 1.48e7 | 1.49e7 |
| CG6479 | DRSC10647 | 3.66e7 | 4.02e7 | – | 1.76e7 | 2.65e7 |
| CG6126 | DRSC15971 | 5.44e7 | 2.49e7 | – | 2.40e7 | 1.18e7 |
| pyr | DRSC06319 | 3.86e7 | 4.74e7 | – | 2.03e7 | 2.26e7 |
| pyr | DRSC22520 | 2.02e7 | 1.83e7 | – | 1.09e7 | 8.53e6 |
| CG13226 | DRSC06346 | 2.87e7 | 2.40e7 | – | 1.46e7 | 1.12e7 |
| CG31493 | DRSC12583 | 4.11e7 | 4.60e7 | – | 1.73e7 | 1.94e7 |
| fuss | DRSC17200 | 4.00e7 | 5.78e7 | 2 | 1.99e7 | 2.38e7 |
| fuss | DRSC21452 | 3.57e7 | 3.11e7 | – | 1.98e7 | 1.44e7 |
| CG8641 | DRSC11028 | 3.66e7 | 3.94e7 | – | 1.67e7 | 1.80e7 |
| CG16710 | DRSC15136 | 3.50e7 | 1.19e7 | – | 1.60e7 | 6.39e6 |
| CG34006 (retired record) | DRSC13817 | 3.63e7 | 3.01e7 | – | 1.55e7 | 1.47e7 |
| CG33758 | DRSC05158 | 2.63e7 | 3.43e7 | – | 1.26e7 | 1.72e7 |
| CG14448 | DRSC11705 | 2.76e7 | 3.67e7 | – | 1.36e7 | 1.49e7 |
| fliI | DRSC20578 | 2.84e7 | 2.80e7 | – | 1.42e7 | 1.50e7 |
| Dlc90F | DRSC16649 | 5.56e7 | 4.50e7 | – | 2.55e7 | 1.82e7 |
| E(var)3-9 | DRSC14451 | 5.03e7 | 3.33e7 | – | 2.46e7 | 1.84e7 |
| E(var)3-9 | DRSC23242 | 3.22e7 | 4.26e7 | – | 1.65e7 | 1.79e7 |
| cype | DRSC02356 | 4.27e7 | 4.25e7 | – | 2.05e7 | 1.94e7 |
| Lsp1gamma | DRSC08672 | 4.13e7 | 3.68e7 | – | 1.84e7 | 1.67e7 |
| CG42552 (retired record) | DRSC11512 | 3.53e7 | 3.68e7 | – | 1.85e7 | 1.55e7 |
| Nipped-B | DRSC07815 | 3.41e7 | 4.30e7 | – | 1.83e7 | 2.07e7 |
| mth | DRSC08725 | 4.49e7 | 4.00e7 | – | 2.04e7 | 2.02e7 |
| Rpt5 | DRSC16842 | 2.19e7 | 2.59e7 | – | 1.58e7 | 1.43e7 |
| phol | DRSC10367 | 5.27e7 | 5.04e7 | – | 3.63e7 | 2.26e7 |
| CG14391 | DRSC14850 | 3.39e7 | 4.11e7 | – | 1.75e7 | 2.03e7 |
| Eato | DRSC01891 | 5.88e7 | – | – | 2.56e7 | – |
| Eato | DRSC03061 | 4.79e7 | 2.99e7 | – | 2.06e7 | 1.24e7 |
| CG42266 | DRSC21577 | 3.39e7 | 3.15e7 | – | 2.11e7 | 1.48e7 |
| CG42266 | DRSC21957 | 3.83e7 | 8.91e7 | – | 1.86e7 | 3.82e7 |
| CG11634 | DRSC03700 | 3.13e7 | 4.72e7 | – | 1.51e7 | 1.97e7 |
| Ptp61F | DRSC08683 | 3.74e7 | 5.48e7 | – | 2.09e7 | 2.79e7 |
| CG14589 | DRSC04866 | 3.83e7 | 4.89e7 | – | 2.02e7 | 2.19e7 |
| SMC1 | DRSC16846 | 5.34e7 | 5.26e7 | – | 2.62e7 | 2.27e7 |
| Tsp5D | DRSC18380 | 3.40e7 | 4.40e7 | – | 1.64e7 | 2.16e7 |
| Cftr | DRSC15872 | 5.39e7 | 4.71e7 | – | 2.49e7 | 2.04e7 |
| smid | DRSC11398 | 2.47e7 | 4.82e7 | – | 1.25e7 | 2.08e7 |
| CG4613 | DRSC10435 | 7.91e7 | 9.15e7 | – | 2.95e7 | 3.19e7 |
| Dnaaf5 | DRSC13032 | 2.51e7 | 2.25e7 | – | 1.23e7 | 1.16e7 |
| CG31431 | DRSC14589 | 3.75e7 | 4.12e7 | – | 5.58e7 | 1.85e7 |
| stv | DRSC09796 | 2.80e7 | 3.49e7 | – | 1.31e7 | 2.13e7 |
| stv | DRSC10111 | 3.72e7 | 4.86e7 | – | 1.88e7 | 2.12e7 |
| CG4511 | DRSC15589 | 4.06e7 | 3.53e7 | – | 2.01e7 | 1.83e7 |
| CR33294 | DRSC22950 | 2.27e7 | 3.35e7 | – | 1.30e7 | 1.40e7 |
| CG11456 | DRSC11665 | 4.18e7 | 4.55e7 | – | 1.94e7 | 3.17e7 |
| CG31730 | DRSC01308 | 4.21e7 | 5.28e7 | – | 2.20e7 | 2.51e7 |
| Scamp | DRSC20286 | 3.12e7 | 2.45e7 | – | 1.63e7 | 1.24e7 |
| CG4619 | DRSC02764 | 6.26e7 | – | – | 2.86e7 | – |
| gammaSnap2 | DRSC15992 | 2.49e7 | 2.19e7 | – | 1.34e7 | 1.15e7 |
| GluRIIE | DRSC13431 | 2.54e7 | 2.39e7 | – | 1.36e7 | 1.16e7 |
| Cep135 | DRSC09345 | 4.81e7 | 4.24e7 | – | 2.18e7 | 1.95e7 |
| Cep135 | DRSC10244 | 3.45e7 | 4.44e7 | – | 1.61e7 | 2.97e7 |
| CG14221 | DRSC19578 | 3.74e7 | 4.11e7 | – | 2.06e7 | 1.83e7 |
| CG40191 | DRSC21041 | 6.40e7 | 3.47e7 | – | 3.02e7 | 1.35e7 |
| Hus1-like | DRSC12353 | 2.94e7 | 4.76e7 | – | 1.52e7 | 2.15e7 |
| CG13991 | DRSC02323 | 3.80e7 | 4.16e7 | – | 1.85e7 | 1.93e7 |
| Alh | DRSC12447 | 3.09e7 | 4.10e7 | – | 1.84e7 | 2.20e7 |
| Alh | DRSC12487 | 4.44e7 | 3.58e7 | – | 2.19e7 | 1.62e7 |
| Alh | DRSC12488 | 4.39e7 | 2.88e7 | – | 2.14e7 | 1.48e7 |
| Cyp4d2 | DRSC18458 | 2.88e7 | 3.45e7 | – | 1.45e7 | 1.66e7 |
| Tsp3A | DRSC18656 | 5.61e7 | 4.99e7 | 2 | 2.82e7 | 2.12e7 |
| Snm1 | DRSC12130 | 3.33e7 | 3.61e7 | – | 1.41e7 | 1.69e7 |
